# Results from PubChem BioAssay AID2685 (National Center for Advancing Translational Sciences (NCATS), 2010).
# Hit rate of the full screen: of about 320,000 compounds, about 2,100 (0.66%) were called active. Inconclusive results, whose numbers are uncertain, are shown with a selection of clear calls. The call rests on the fitted dose curve; in most records, active means well fitted inhibition curve with a large enough effect in the signal ratio, with a control signal flat (not every such curve was filed as active); inconclusive means small, poorly fitted or top-dose-only effect, or effect the other way, or a change in a side signal; inactive means flat fitted curve, though single readings scatter; the % refers to the signal ratio. A potency beside an inconclusive call is a rough fit, not a confirmed value. Where a SMILES comes first, the peptide text is derived from it. The star is where a group is joined. Bz = O=C(c1ccccc1)*
# Test: qHTS Assay for Lipid Storage Modulators in Drosophila S3 Cells
# Details: BODIPY lipid droplet fluorescence, 18-24 h, cells fed with added oleic acid; lipid storage change, negative = inhibition: at 46.1 µM (top of the series) unless noted
# Outline: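 Drosophila S3 cells loaded with oleic acid (400 uM, as added) and compounds at several concentrations; lipid droplets imaged by 488-nm laser-scanning cytometry, 500–530 nm intensity and object ratio to cell channel. Percent activity normalized to 20 uM Triacsin C.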
# On the % scale 0 is the no-effect control and ±100 the full control effect; potency means the concentration at half of the fitted maximal effect.
Structure (SMILES),Potency,"lipid storage change, negative = inhibition"
COc1ccc(N2CCN(c3nc4ccccn4c(=O)c3C=O)CC2)cc1,active: 4.61 µM,–
S=C(NCCCN1CCOCC1)NC1CC1,"inconclusive: 35.5 µM [falling, single point]",–
Cc1ccn2c(C(=O)CSc3ccccc3Cl)c(C)nc2c1,–,inconclusive: 64.3%
Cc1nc(C)c(C(=O)Nc2cccc(C)c2C)s1,–,inconclusive: 16.6%
Cc1cc(C(=O)N/N=C/c2cc(Br)cc([N+](=O)[O-])c2O)c2ccccc2n1,"inconclusive: 29.1 µM [activator, single point]",–
COCCN(CC(=O)Nc1cccc(C)c1C)C(=O)c1cc(-c2ccncc2)nc2ccccc12,"inconclusive: 0.0046 µM [activator, full curve, poor fit]",–
Cc1ccc(C2=NS(=O)(=O)N(C)C(C(=O)NCc3ccco3)=C2)cc1,–,inconclusive: 4.68%
Cc1nc(C)c(C(=O)N2CCCC(C(=O)c3cc(F)ccc3F)C2)s1 (stereo not drawn),–,inconclusive: 1.09%
Cc1ccccc1N=Cc1cc2c(cc1[N+](=O)[O-])OCO2,–,inconclusive: 23.3%
COc1cccc(Oc2cncnc2-c2ccc(OC)cc2O)c1,"inconclusive: 3.66 µM [activator, single point]",–
C=CCc1ccc(OCCOCCNCCOC)c(OC)c1,–,inconclusive: 21.2%
O=S(=O)(Nc1nc2ccccc2nc1N1CCc2ccccc2C1)c1ccc(Cl)cc1,–,inconclusive: 1.95%
O=c1o[nH]c(-c2ccccc2)c1C1=NCCCCC1,–,inconclusive: -4.36%
O=C(Nc1ccccc1)C1=C[C@H](c2ccc3c(c2)OCO3)C[C@H](OCCCCO)O1,–,inconclusive: -5.25%
Cc1ccc(-c2n[nH]c(=O)c3ccccc23)cc1S(=O)(=O)Nc1ccc(F)cc1,–,inconclusive: -2.33%
CCCOc1ccccc1/C=C1\SC(N)=NC1=O,–,inactive
CCOC(=O)C1CCCN(c2c(N3CCc4ccccc4C3)c(=O)c2=O)C1 (stereo not drawn),–,inconclusive: -5.99%
O=C(NC(Cc1ccccc1)C(=O)N1CCCC1C(=O)O)c1ccccc1 (stereo not drawn) (Bz-Phe-Pro-OH; configuration not given here),–,inconclusive: 0.19%
COc1ccc2nc(N3CCCC(C(=O)NCCCN4C(C)CCCC4C)C3)sc2c1 (stereo not drawn),–,inconclusive: -4.33%
Nc1ccc2c(c1)N=[N+]([O-])c1cc(N)ccc1C2,–,inconclusive: 8.97%
CSCCC(NC(=O)COc1ccccc1)C(=O)N(C)CC(=O)Nc1ccc(C)cc1 (stereo not drawn),–,inconclusive: -31.2%
CC(=O)Nc1ccc(NC(=O)c2c(-c3ccccc3Cl)noc2C)cc1,–,inconclusive: 49.5%
C=CCN(c1ccccc1)S(=O)(=O)c1cccc(C(=O)N2CCN(c3ncccn3)CC2)c1,–,inconclusive: 23.6%
CCN(Cc1ccccc1)CC(O)COc1ccccc1 (stereo not drawn),"inconclusive: 1.3 µM [falling, partial curve, poor fit]",–
Cc1ccc(C2CN=NC23CCc2ccccc2C3=O)cc1 (stereo not drawn),–,inconclusive: 7.23%
Cc1c(C(=O)N2CCN(CCc3ccccn3)CC2)oc2ccc(F)cc12,–,inactive

Structure (SMILES),Potency,"lipid storage change, negative = inhibition"
O=C(c1cccs1)N1CCN(c2ncc(Br)cn2)CC1,–,inconclusive: 7.32%
COC(=O)c1ccc(OCC2c3cc(OC)c(OC)cc3CCN2C(C)=O)cc1 (stereo not drawn),–,inconclusive: -90.2%
CC(=O)NCCOC(=O)Nc1cccnc1,–,inconclusive: -9.67%
OCCc1c[nH]c2ccc(C(F)(F)F)cc12,–,inconclusive: -6%
CCc1cccc(CC)c1NC(=O)CSc1nnc(C2CC2)n1C,"inconclusive: 3.66 µM [activator, full curve]",–
Cc1ccccc1NC(=S)NC(=O)c1cncc(Br)c1,–,inconclusive: 33.7%
N#C/C(=C(/O)c1ccc([N+](=O)[O-])cc1)c1nnc2n1CCCCC2,–,inconclusive: -32.8%
Cn1c(SCc2c(F)cccc2Cl)nc2c(c1=O)SCC2,–,inconclusive: 121%
CC(C)N(C(=O)Cn1cnc2c(cnn2-c2ccccc2Cl)c1=O)C(C)C,"inconclusive: 29.1 µM [falling, single point]",–
Cc1ccnc(NC(=O)CCC(=O)N(CC(=O)NCc2ccccc2)c2ccc3c(c2)OCO3)c1,–,inconclusive: 4.5%
Cc1ccc(C)c(N2CCN(C(=O)C3CCN(c4nc(C)cc(C)n4)CC3)CC2)c1,–,inconclusive: 45.4%
O=C(CCS(=O)(=O)c1ccc(Br)cc1)N1CCN(Cc2ccccc2)CC1,"inconclusive: 0.13 µM [falling, full curve, poor fit]",–
O=[N+]([O-])c1ccc(/C=C2\CCC(C3=CCCC3)=C2N2CCOCC2)cc1,–,inconclusive: -48.5%
C#CCOCCOCCOCCNc1nc(N2CCN(C(=O)CCCCCCCCCCNC(=O)Cn3cc(CCCCCN)nn3)CC2)nc(N2CCN(C(=O)CCCCCCCCCCNC(=O)[C@@H](CCC(=O)O)n3cc(CCCCCN)nn3)CC2)n1,"inconclusive: 0.461 µM [falling, full curve]",–
Cc1ccc(N2CCN(c3cc(C)nc4c5c(C)cc(C)nc5nn34)CC2)cc1,–,inconclusive: 32.9%
O=C(O)CSC1c2ccccc2C(=O)N1Cc1ccccc1 (stereo not drawn),–,inactive
Cc1cc(NC(=O)CSc2nnc(CNC(=O)c3cccc(C(F)(F)F)c3)o2)no1,–,inconclusive: 37.3%
COc1ccc(-c2cn3cccnc3n2)cc1NC(=O)Nc1cc(C)ccc1C,"inconclusive: 16.4 µM [falling, single point]",–
CSc1nsc(SCc2ccc(F)cc2)n1,–,inconclusive: 54.2%
Cc1ccc2c(c1)N(C)/C(=C/c1cccc[n+]1C)S2,"inconclusive: 7.31 µM [cytotoxic, partial curve]",–
COc1ccccc1NS(=O)(=O)c1ccc(C(=O)NCC(c2ccccc2OC)N(C)C)cc1 (stereo not drawn),–,inactive
Cc1ccc(C(=O)OCC(=O)Nc2ccc(Cl)cn2)s1,–,inconclusive: 32.6%
O=C(NCCc1ccco1)c1cc(COc2cccc(C(F)(F)F)c2)on1,–,inconclusive: -86.2%
C=CCn1c(CSc2nc3ccccc3s2)nnc1SCC(=O)NCc1cccnc1,–,inconclusive: -30.1%
O=C(CCCO)NNc1c2ccccc2nc2ccccc12,"inconclusive: 20.6 µM [falling, single point]",–
CC(CC(=O)Nc1cccnc1)c1ccccc1 (stereo not drawn),–,inconclusive: -0.0454% [at 9.22 µM]

# 17 compounds already listed, ordered by length of the SMILES, falling:
Structure (SMILES),Potency,"lipid storage change, negative = inhibition"
C#CCOCCOCCOCCNc1nc(N2CCN(C(=O)CCCCCCCCCCNC(=O)Cn3cc(CCCCCN)nn3)CC2)nc(N2CCN(C(=O)CCCCCCCCCCNC(=O)[C@@H](CCC(=O)O)n3cc(CCCCCN)nn3)CC2)n1,"inconclusive: 0.461 µM [falling, full curve]",–
Cc1ccnc(NC(=O)CCC(=O)N(CC(=O)NCc2ccccc2)c2ccc3c(c2)OCO3)c1,–,inconclusive: 4.5%
COc1ccccc1NS(=O)(=O)c1ccc(C(=O)NCC(c2ccccc2OC)N(C)C)cc1 (stereo not drawn),–,inactive
Cc1ccc(C)c(N2CCN(C(=O)C3CCN(c4nc(C)cc(C)n4)CC3)CC2)c1,–,inconclusive: 45.4%
O=[N+]([O-])c1ccc(/C=C2\CCC(C3=CCCC3)=C2N2CCOCC2)cc1,–,inconclusive: -48.5%
N#C/C(=C(/O)c1ccc([N+](=O)[O-])cc1)c1nnc2n1CCCCC2,–,inconclusive: -32.8%
COC(=O)c1ccc(OCC2c3cc(OC)c(OC)cc3CCN2C(C)=O)cc1 (stereo not drawn),–,inconclusive: -90.2%
C=CCn1c(CSc2nc3ccccc3s2)nnc1SCC(=O)NCc1cccnc1,–,inconclusive: -30.1%
O=C(NCCc1ccco1)c1cc(COc2cccc(C(F)(F)F)c2)on1,–,inconclusive: -86.2%
Cc1ccc2c(c1)N(C)/C(=C/c1cccc[n+]1C)S2,"inconclusive: 7.31 µM [cytotoxic, partial curve]",–
Cc1ccc(C(=O)OCC(=O)Nc2ccc(Cl)cn2)s1,–,inconclusive: 32.6%
O=C(c1cccs1)N1CCN(c2ncc(Br)cn2)CC1,–,inconclusive: 7.32%
Cc1ccccc1NC(=S)NC(=O)c1cncc(Br)c1,–,inconclusive: 33.7%
O=C(CCCO)NNc1c2ccccc2nc2ccccc12,"inconclusive: 20.6 µM [falling, single point]",–
OCCc1c[nH]c2ccc(C(F)(F)F)cc12,–,inconclusive: -6%
CC(CC(=O)Nc1cccnc1)c1ccccc1 (stereo not drawn),–,inconclusive: -0.0454% [at 9.22 µM]
CC(=O)NCCOC(=O)Nc1cccnc1,–,inconclusive: -9.67%

# Later entries.

Structure (SMILES),Potency,"lipid storage change, negative = inhibition"
CC(Oc1cc2oc(=O)c3c(c2cc1Cl)CCC3)C(=O)NCc1ccccn1 (stereo not drawn),"inconclusive: 0.461 µM [falling, full curve]",–
Cc1nc2cc(-c3ccccc3)[nH]n2c(=O)c1C,"inconclusive: 11.6 µM [activator, partial curve]",–
COc1cc(/C=C/C(=O)OCC(=O)Nc2sc3c(c2C#N)CCC(C)C3)ccc1OCC#N (stereo not drawn),"inconclusive: 29.1 µM [falling, single point]",–
COc1ccc(N2C(=O)C(CC(=O)Nc3ccccc3)N(CCc3ccc(OC)c(OC)c3)C2=O)cc1 (stereo not drawn),–,inactive
Cc1ccc(S(=O)(=O)n2c(N)nc3ccccc32)cc1,"inconclusive: 0.58 µM [activator, single point]",–
O=C(NCc1ccccc1)C(c1cccnc1)N(C(=O)c1csnn1)c1ccc(F)cc1 (stereo not drawn),–,inconclusive: 164%
CC(=O)N(/N=C1\Sc2ccccc2C1=O)c1ccc(C)cc1C,–,inconclusive: 116%
O=C(/C=C(\c1ccc(Cl)cc1)n1cncn1)c1ccc(Cl)cc1,–,inconclusive: -16.8%
COc1ccc2c(c1OC)C(=O)N1c3ccccc3SC21 (stereo not drawn),"inconclusive: 2.59 µM [activator, partial curve]",–
O=C(NC1CCc2ccccc21)C1CCN(S(=O)(=O)c2ccc(Cl)cc2)CC1 (stereo not drawn),–,inconclusive: 28.5%
CCCCOc1ccc(/C(O)=C2/C(=O)C(=O)N(CCN(C)C)C2c2ccc(O)c(OC)c2)cc1 (stereo not drawn),"inconclusive: 2.31 µM [activator, full curve]",–
O=C(CC1SC(=NCC2CCCO2)NC1=O)Nc1cc([N+](=O)[O-])ccc1Cl (stereo not drawn),–,inconclusive: 1.39%
Cc1ccc(NC(=O)COC(=O)c2ccco2)cc1C,"inconclusive: 0.206 µM [activator, full curve]",–
CN1C(=O)C2(Oc3ccccc3C3CC(c4ccccc4)=NN32)c2ccccc21 (stereo not drawn),–,inconclusive: -7.68%
CC(=O)c1cccc(NC(=O)Nc2ccc(C(=O)N3CCOCC3)cc2)c1,–,inconclusive: 9.62%
CCc1sc(C(=O)NCc2cc(C)n(C)n2)cc1Br,–,inconclusive: 21.5%
CC(C)NC(=O)CN1CCN(Cc2nc(C(c3ccccc3)c3ccccc3)no2)CC1,–,inconclusive: 35.8%
Cc1ccc(S(=O)(=O)NCCc2ccccc2)cc1,–,inconclusive: 112%
CCn1c(C)nc2cc(OC)ccc21,–,inconclusive: 36.1%
Cc1oc(-c2ccoc2)nc1CN(Cc1ccccc1)CC1CC1,–,inactive
CCOc1ccc(NC(=O)CCC(=O)N/N=C/c2ccc3c(c2)OCO3)cc1,–,inconclusive: 9.69%
CCN(CC)S(=O)(=O)c1cccc(NC(=O)COc2ccc(Cl)cc2Br)c1,"inconclusive: 1.84 µM [activator, partial curve, poor fit]",–
CC(C)(C)C(=O)NC1CC2CCCC(C1)N2C(=O)Nc1ccccc1F (stereo not drawn),–,inconclusive: -13.1%
Cc1nn(C)cc1S(=O)(=O)N1CCN(Cc2ccccc2Cl)CC1,–,inconclusive: -39.9% [cytotoxic] [at 0.00295 µM]
Cn1nc(C(C)(C)C)cc1C(=O)Nc1nc2c(s1)C(=O)CC(C)(C)C2,–,inconclusive: 3.29%
CCOc1cc(/C=N/NC(=O)CSc2nncn2C)ccc1OCC(N)=O,"inconclusive: 0.651 µM [falling, full curve, poor fit]",–
